At least one compound was matched to its structure with a doubt left.
Test system: feline umami receptor
Test: Ligand binding of the feline umami receptor
Details: natural ligands of the human T1R1/T1R3 receptor
Excerpt: As mentioned above, in addition to in silico modelling of the feline umami receptor, sequence alignments of the human, cat and dog receptors have been performed. […] Therefore, due to these significant differences, it would not be expected by the skilled person that compounds that are known to bind to the human receptor would affect the umami receptor of other animals as described herein.

With `N[C@@H](CC(=O)O)C(=O)O` [aspartate] the “Binding to the feline umami receptor” value was “does not bind”.
